Positions count from the first letter of the chain named. No constants are given. Whether binding was seen depends on the method and setting. In cells and extracts the contact can be indirect. A yes stands for co-enrichment or nearness to the bait. Other partners may have been found. For some of these results: No binding means not detected with the bait. Where a sequence is shown, tags or fusion partners need not be part of it.

Sequences of proteins named here, by UniProt entry; tags and fusion partners are left off.
UniProt Q03135: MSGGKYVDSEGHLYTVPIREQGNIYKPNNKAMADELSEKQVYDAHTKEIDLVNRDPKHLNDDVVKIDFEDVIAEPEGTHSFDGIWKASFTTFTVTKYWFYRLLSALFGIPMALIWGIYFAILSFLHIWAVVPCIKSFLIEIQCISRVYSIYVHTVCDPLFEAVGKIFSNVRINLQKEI

Holding throughout (test): affinity purification with mass spectrometry
In test [1] the target is T1, ^FLAGBTBD9 (wildtype), for mass spectrometry (not stated (human or mouse cDNA cloned)) (UniProt Q96Q07).
T1 sequence: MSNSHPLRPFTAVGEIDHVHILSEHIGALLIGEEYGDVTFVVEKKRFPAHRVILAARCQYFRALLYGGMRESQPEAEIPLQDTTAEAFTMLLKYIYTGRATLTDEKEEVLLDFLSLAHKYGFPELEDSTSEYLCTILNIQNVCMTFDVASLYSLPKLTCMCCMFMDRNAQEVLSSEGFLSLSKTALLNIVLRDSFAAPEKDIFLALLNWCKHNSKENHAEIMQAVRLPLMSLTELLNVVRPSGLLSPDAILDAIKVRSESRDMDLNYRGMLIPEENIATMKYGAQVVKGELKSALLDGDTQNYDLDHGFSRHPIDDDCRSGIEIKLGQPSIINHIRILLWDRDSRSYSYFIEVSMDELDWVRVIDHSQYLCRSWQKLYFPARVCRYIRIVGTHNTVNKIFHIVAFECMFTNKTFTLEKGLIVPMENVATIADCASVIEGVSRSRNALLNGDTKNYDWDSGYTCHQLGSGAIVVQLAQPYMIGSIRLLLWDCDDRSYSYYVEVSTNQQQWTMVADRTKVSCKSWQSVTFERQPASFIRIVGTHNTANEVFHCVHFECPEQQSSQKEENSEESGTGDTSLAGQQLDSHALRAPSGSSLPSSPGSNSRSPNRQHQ

Test [2] deals with T2, ^FLAGBTBD9^M69A/R70A/E71A, for mass spectrometry (not stated (human or mouse cDNA cloned)) (UniProt Q96Q07).
T2 sequence: T1 sequence with M69A, R70A, E71A

In test [3] the target is T3, ^FLAGBTBD9^NEV/AKD, for mass spectrometry (not stated (human or mouse cDNA cloned)) (UniProt Q96Q07).
T3 sequence: T1 sequence with N546A, E547K, V548D

As to “endogenous CAV1 (found in BTBD9 affinity-purifications by mass spectrometry) (from UniProt Q03135 1-178)”, the binding result in test [1] is listed as “binds”; in test [2] it was “binds”; in test [3], “no binding”.

B1: KCTD10 (found in BTBD9 affinity-purifications by mass spectrometry) (protein, UniProt Q9H3F6 1-313)
chain: MEEMSGESVVSSAVPAAATRTTSFKGTSPSSKYVKLNVGGALYYTTMQTLTKQDTMLKAMFSGRMEVLTDSEGWILIDRCGKHFGTILNYLRDGAVPLPESRREIEELLAEAKYYLVQGLVEECQAALQNKDTYEPFCKVPVITSSKEEQKLIATSNKPAVKLLYNRSNNKYSYTSNSDDNMLKNIELFDKLSLRFNGRVLFIKDVIGDEICCWSFYGQGRKIAEVCCTSIVYATEKKQTKVEFPEARIYEETLNILLYEAQDGRGPDNALLEATGGAAGRSHHLDEDEERERIERVRRIHIKRPDDRAHLHQ
For B1, the binding entry in test [1] and in test [2] was “binds” in each case.

B2: TNFAIP1 (found in BTBD9 affinity-purifications by mass spectrometry) (protein, UniProt Q13829 1-316)
chain: MSGDTCLCPASGAKPKLSGFKGGGLGNKYVQLNVGGSLYYTTVRALTRHDTMLKAMFSGRMEVLTDKEGWILIDRCGKHFGTILNYLRDDTITLPQNRQEIKELMAEAKYYLIQGLVNMCQSALQDKKDSYQPVCNIPIITSLKEEERLIESSTKPVVKLLYNRSNNKYSYTSNSDDHLLKNIELFDKLSLRFNGRVLFIKDVIGDEICCWSFYGQGRKLAEVCCTSIVYATEKKQTKVEFPEARIYEETLNVLLYETPRVPDNSLLEATSRSRSQASPSEDEETFELRDRVRRIHVKRYSTYDDRQLGHQSTHRD
Take B2: the binding result in test [1] and in test [2] was “binds” throughout.

B3: KCTD13 (protein, UniProt Q8WZ19 1-329)
chain: MSAEASGPAAAAAPSLEAPKPSGLEPGPAAYGLKPLTPNSKYVKLNVGGSLHYTTLRTLTGQDTMLKAMFSGRVEVLTDAGGWVLIDRSGRHFGTILNYLRDGSVPLPESTRELGELLGEARYYLVQGLIEDCQLALQQKRETLSPLCLIPMVTSPREEQQLLASTSKPVVKLLHNRSNNKYSYTSTSDDNLLKNIELFDKLALRFHGRLLFLKDVLGDEICCWSFYGQGRKIAEVCCTSIVYATEKKQTKVEFPEARIFEETLNILIYETPRGPDPALLEATGGAAGAGGAGRGEDEENREHRVRRIHVRRHITHDERPHGQQIVFKD
Consider B3, for which the binding result in test [1] and in test [2] was “binds” each time.

B4: CAVIN3 (protein, UniProt Q969G5 1-261)
chain: MRESALERGPVPEAPAGGPVHAVTVVTLLEKLASMLETLRERQGGLARRQGGLAGSVRRIQSGLGALSRSHDTTSNTLAQLLAKAERVSSHANAAQERAVRRAAQVQRLEANHGLLVARGKLHVLLFKEEGEVPASAFQKAPEPLGPADQSELGPEQLEAEVGESSDEEPVESRAQRLRRTGLQKVQSLRRALSGRKGPAAPPPTPVKPPRLGPGRSAEAQPEAQPALEPTLEPEPPQDTEEDPGRPGAAEEALLQMESVA
With B4, the binding result in test [1] is recorded as “binds”.

The record behind these values is doi:10.1101/2025.05.15.654347.
